Experimental data from publication PMC2845627.
No constants are given. Whether binding was seen depends on the method and setting. Tags and fused reporters may be left off the sequences shown.

T1: AtGyrA (LexA DNA-binding domain fusion) (A. thaliana) (UniProt Q9CAF6)
T1 sequence: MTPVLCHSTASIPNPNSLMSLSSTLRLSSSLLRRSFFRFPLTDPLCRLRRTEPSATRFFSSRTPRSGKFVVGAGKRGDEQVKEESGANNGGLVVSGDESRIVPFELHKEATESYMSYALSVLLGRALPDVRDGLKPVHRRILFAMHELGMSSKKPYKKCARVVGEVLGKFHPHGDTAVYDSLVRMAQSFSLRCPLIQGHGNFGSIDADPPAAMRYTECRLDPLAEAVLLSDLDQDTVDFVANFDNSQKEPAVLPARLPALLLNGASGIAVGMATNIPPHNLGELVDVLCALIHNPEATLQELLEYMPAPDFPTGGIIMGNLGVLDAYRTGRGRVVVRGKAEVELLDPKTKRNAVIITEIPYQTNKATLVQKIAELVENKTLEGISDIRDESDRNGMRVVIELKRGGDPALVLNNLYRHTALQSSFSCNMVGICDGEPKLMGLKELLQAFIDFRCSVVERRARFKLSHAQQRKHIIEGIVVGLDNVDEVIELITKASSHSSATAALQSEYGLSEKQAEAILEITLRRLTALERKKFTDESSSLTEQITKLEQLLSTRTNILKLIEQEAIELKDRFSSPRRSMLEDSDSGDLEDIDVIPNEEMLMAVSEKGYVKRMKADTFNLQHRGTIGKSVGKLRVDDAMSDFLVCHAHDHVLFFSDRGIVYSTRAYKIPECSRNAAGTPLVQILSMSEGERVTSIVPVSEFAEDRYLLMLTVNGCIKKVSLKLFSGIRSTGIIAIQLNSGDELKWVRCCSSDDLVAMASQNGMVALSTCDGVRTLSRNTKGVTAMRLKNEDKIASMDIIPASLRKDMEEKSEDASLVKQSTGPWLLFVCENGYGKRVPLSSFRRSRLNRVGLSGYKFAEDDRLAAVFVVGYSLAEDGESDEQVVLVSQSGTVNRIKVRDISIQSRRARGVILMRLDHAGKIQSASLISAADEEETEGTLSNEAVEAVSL

T2: AtGyrB3 (two-hybrid fusions, Matchmaker LexA system) (A. thaliana), Q8VY11
T2 chain: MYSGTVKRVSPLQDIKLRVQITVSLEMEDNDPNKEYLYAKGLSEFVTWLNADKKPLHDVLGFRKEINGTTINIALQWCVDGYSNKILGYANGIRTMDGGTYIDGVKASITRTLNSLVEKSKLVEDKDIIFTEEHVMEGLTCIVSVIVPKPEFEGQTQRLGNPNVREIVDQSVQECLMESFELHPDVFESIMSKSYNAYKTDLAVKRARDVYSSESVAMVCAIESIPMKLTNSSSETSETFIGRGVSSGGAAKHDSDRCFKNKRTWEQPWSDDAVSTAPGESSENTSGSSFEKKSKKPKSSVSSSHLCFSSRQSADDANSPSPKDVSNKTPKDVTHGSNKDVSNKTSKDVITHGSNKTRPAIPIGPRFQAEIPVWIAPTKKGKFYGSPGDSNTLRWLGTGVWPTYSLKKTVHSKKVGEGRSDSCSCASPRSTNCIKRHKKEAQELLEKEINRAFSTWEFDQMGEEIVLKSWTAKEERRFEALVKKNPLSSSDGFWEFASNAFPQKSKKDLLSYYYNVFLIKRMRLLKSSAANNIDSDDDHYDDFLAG


Assays:
[1] = target: T1, AtGyrA (LexA DNA-binding domain fusion) (A. thaliana); test: two-hybrid; Matchmaker LexA Two-Hybrid System (Clontech); bait fused to the LexA DNA-binding domain, prey fused to the B42 activation domain
[2] = target: T2, AtGyrB3 (two-hybrid fusions, Matchmaker …); test: as above; conditions: remark: other sources report otherwise

binding [1]	binding [2]	Binder
no binding	–	AtGyrB3 (two-hybrid fusions, Matchmaker LexA system) (protein, UniProt Q8VY11 1-546) MYSGTVKRVSPLQDIKLRVQITVSLEMEDNDPNKEYLYAKGLSEFVTWLNADKKPLHDVLGFRKEINGTTINIALQWCVDGYSNKILGYANGIRTMDGGTYIDGVKASITRTLNSLVEKSKLVEDKDIIFTEEHVMEGLTCIVSVIVPKPEFEGQTQRLGNPNVREIVDQSVQECLMESFELHPDVFESIMSKSYNAYKTDLAVKRARDVYSSESVAMVCAIESIPMKLTNSSSETSETFIGRGVSSGGAAKHDSDRCFKNKRTWEQPWSDDAVSTAPGESSENTSGSSFEKKSKKPKSSVSSSHLCFSSRQSADDANSPSPKDVSNKTPKDVTHGSNKDVSNKTSKDVITHGSNKTRPAIPIGPRFQAEIPVWIAPTKKGKFYGSPGDSNTLRWLGTGVWPTYSLKKTVHSKKVGEGRSDSCSCASPRSTNCIKRHKKEAQELLEKEINRAFSTWEFDQMGEEIVLKSWTAKEERRFEALVKKNPLSSSDGFWEFASNAFPQKSKKDLLSYYYNVFLIKRMRLLKSSAANNIDSDDDHYDDFLAG
–	no binding	AtGyrB3 (two-hybrid fusions, Matchmaker LexA system), Q8VY11 1-546 (protein) MYSGTVKRVSPLQDIKLRVQITVSLEMEDNDPNKEYLYAKGLSEFVTWLNADKKPLHDVLGFRKEINGTTINIALQWCVDGYSNKILGYANGIRTMDGGTYIDGVKASITRTLNSLVEKSKLVEDKDIIFTEEHVMEGLTCIVSVIVPKPEFEGQTQRLGNPNVREIVDQSVQECLMESFELHPDVFESIMSKSYNAYKTDLAVKRARDVYSSESVAMVCAIESIPMKLTNSSSETSETFIGRGVSSGGAAKHDSDRCFKNKRTWEQPWSDDAVSTAPGESSENTSGSSFEKKSKKPKSSVSSSHLCFSSRQSADDANSPSPKDVSNKTPKDVTHGSNKDVSNKTSKDVITHGSNKTRPAIPIGPRFQAEIPVWIAPTKKGKFYGSPGDSNTLRWLGTGVWPTYSLKKTVHSKKVGEGRSDSCSCASPRSTNCIKRHKKEAQELLEKEINRAFSTWEFDQMGEEIVLKSWTAKEERRFEALVKKNPLSSSDGFWEFASNAFPQKSKKDLLSYYYNVFLIKRMRLLKSSAANNIDSDDDHYDDFLAG
no binding	–	AtGyrB2 (B42 activation domain fusion) (protein, UniProt Q94BZ7 1-732) MALLQRASYLRLYYLRLMGSRPRLFSSSLSPALHRHSSTLSSPPFSSPSPSFRLKFQLTSVLSQRLIQRNAISSRFLSTEASQETTTSKGYSSEQIQVLEGLDPVRKRPGMYIGSTGSRGLHHLVYEILDNAIDEAQAGYASKVDVVLHADGSVSVVDNGRGIPTDLHPATKKSSLETVLTVLHAGGKFGGTSSGYSVSGGLHGVGLSVVNALSEALEVSVWRDGMEHKQNYSRGKPITTLTCRVLPLESKGTKGTSIRFWPDKEVFTTAIEFDHNTIAGRIRELAFLNPKVTISLKKEDDDPEKTQYSEYSFAGGLTEYVSWLNTDKNPIHDVLGFRREINGATVDVALQWCSDAYSDTMLGYANSIRTIDGGTHIEGVKASLTRTLNTLAKKSKTVKEKDISLSGEHVREGLTCIVSVKVPNPEFEGQTKTRLGNPEVRKIVDQSVQEYLTEFLELHPDILESIISKSLNAYKAALAAKRARELVRSKSVLKSSSLPGKLADCSSTDPEVSEIFIVEGDSAGGSAKQGRDRRFQAILPLRGKILNIERKDEAAMYKNEEIQNLILGLGLGVKGEDFKKENLRYHKIIILTDADVDGAHIRTLLLTFFFRYQRALFDAGCIYVGVPPLFKVERGKNAQYCYDDADLKKITSNFPANASYNIQRFKGLGEMMPEQLWETTMNPETRILKQLVVDDIAEANMTFSSLMGARVDVRKELIKNAATRINLQRLDI
